From article PMC7948418, “Genetic and biased agonist-mediated reductions in β-arrestin recruitment prolong cAMP signaling at glucagon family receptors” (The Journal of Biological Chemistry, 2020)
Results are given in words; binding and its absence hold for the method and conditions named. Binding seen in cells or lysates may run through a third protein. Some binding calls cover weakened binding; strength is not graded here.

By UniProt entry, the sequences of proteins in these tests, tags left out. Residues count along the entry.
UniProt P47871, residues 26-477: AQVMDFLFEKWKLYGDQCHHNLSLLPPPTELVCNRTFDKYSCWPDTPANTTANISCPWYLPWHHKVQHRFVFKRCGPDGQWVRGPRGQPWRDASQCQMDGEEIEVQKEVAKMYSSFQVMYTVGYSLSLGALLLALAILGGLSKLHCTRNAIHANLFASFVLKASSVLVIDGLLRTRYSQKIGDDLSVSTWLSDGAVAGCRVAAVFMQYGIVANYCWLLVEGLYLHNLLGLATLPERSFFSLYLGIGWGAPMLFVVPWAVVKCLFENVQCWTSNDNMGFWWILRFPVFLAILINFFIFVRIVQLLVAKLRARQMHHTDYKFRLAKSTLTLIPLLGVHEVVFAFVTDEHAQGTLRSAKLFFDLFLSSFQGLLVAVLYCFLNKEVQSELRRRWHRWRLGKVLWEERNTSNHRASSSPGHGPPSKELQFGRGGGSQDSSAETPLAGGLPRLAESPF
UniProt P43220, residues 24-463: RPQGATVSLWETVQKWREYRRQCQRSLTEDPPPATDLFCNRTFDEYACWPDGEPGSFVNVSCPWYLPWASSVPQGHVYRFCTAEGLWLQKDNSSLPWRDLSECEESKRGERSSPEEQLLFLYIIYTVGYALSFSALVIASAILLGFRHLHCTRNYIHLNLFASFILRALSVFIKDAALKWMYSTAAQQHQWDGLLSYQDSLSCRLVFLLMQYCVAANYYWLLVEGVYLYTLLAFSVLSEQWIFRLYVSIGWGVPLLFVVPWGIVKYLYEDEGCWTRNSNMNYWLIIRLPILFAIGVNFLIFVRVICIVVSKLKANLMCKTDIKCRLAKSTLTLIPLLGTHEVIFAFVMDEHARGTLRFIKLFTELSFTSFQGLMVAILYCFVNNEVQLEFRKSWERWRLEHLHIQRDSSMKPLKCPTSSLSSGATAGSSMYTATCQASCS
UniProt P32121: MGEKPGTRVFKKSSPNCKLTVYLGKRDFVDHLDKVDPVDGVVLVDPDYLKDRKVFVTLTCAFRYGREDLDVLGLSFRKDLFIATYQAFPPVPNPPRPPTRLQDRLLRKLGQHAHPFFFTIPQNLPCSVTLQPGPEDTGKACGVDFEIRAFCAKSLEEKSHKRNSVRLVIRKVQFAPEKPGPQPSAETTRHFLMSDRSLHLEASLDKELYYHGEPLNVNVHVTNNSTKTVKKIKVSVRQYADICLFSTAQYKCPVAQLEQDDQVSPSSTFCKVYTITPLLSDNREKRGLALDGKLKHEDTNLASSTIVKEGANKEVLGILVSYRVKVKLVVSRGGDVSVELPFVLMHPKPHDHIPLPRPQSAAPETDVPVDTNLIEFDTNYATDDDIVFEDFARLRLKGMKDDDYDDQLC

Experiments:
GCGR-SmBiT = GCGR-SmBiT (UniProt P47871); assay: split reporter; NanoBiT complementation in HEK293T cells co-transfected with receptor-SmBiT and LgBiT-tagged effector; furimazine; 37 °C; baseline 5 min, then 100 nM cognate agonist (GLP-1, GIP or GCG) or vehicle, luminescence over 30 min, normalised to baseline and vehicle
GLP-1R-SmBiT = GLP-1R-SmBiT (UniProt P43220); assay: as above

binding (GCGR-SmBiT): binds
binding (GLP-1R-SmBiT): binds
Substance: LgBiT-β-arrestin-2 (from UniProt P32121 1-409)
